Measured values reported in patent publication US7038022.

Chains of the proteins cited; added tags and fusions are not shown. A change or cut given only in a name is not applied to a line headed by its entry. A line that says so, or that is headed by a name, gives the form on record, which may keep a tag or linker.
UniProt P19793: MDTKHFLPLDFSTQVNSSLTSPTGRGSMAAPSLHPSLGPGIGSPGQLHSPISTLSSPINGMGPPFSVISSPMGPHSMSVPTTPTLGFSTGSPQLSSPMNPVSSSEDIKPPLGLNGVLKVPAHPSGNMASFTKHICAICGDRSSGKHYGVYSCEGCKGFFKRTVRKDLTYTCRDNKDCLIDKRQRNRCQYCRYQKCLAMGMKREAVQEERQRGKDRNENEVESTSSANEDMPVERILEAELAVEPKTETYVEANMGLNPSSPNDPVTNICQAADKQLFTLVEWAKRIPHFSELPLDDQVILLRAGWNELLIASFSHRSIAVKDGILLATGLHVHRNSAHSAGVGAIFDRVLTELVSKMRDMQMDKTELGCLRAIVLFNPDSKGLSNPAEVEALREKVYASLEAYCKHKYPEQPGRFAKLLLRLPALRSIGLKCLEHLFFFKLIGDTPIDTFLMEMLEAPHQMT
RARα/RXRα heterodimer (COS extract) (Homo sapiens), one chain, as listed by the source: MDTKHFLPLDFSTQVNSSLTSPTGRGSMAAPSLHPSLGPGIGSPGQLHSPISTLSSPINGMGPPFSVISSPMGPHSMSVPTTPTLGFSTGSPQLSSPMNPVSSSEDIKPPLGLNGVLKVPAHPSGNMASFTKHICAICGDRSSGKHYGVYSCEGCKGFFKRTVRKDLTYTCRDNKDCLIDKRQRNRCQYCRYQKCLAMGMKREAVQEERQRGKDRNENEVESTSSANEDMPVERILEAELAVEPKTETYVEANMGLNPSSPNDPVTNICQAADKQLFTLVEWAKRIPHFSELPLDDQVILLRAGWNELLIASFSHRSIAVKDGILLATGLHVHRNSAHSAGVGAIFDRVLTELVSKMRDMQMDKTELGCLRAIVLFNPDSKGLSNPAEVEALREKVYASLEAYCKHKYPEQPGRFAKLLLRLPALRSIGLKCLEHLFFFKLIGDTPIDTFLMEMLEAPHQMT

What was measured:
Experiment in all cases: EMSA
RXR (hRXRα) = RXR (hRXRα) (UniProt P19793); details: protein translated in vitro, label: 32P
RAR (hRARα) = target: T1, RAR (hRARα) (UniProt P10276); details: protein translated in vitro, label: 32P
T1 sequence (looked up, limits assumed): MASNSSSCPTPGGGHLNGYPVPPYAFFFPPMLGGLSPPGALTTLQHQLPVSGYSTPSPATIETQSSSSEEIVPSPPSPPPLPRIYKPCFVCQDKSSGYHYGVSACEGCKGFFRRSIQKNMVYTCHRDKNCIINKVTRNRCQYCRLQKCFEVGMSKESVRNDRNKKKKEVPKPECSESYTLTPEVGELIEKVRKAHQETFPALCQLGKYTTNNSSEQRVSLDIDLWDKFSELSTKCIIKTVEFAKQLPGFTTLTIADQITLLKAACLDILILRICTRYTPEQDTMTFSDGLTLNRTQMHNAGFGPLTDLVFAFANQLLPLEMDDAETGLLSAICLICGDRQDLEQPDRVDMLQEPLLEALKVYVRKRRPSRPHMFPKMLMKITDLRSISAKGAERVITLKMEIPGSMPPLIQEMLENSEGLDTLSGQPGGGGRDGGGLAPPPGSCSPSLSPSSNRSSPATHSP

[1] = target: T2, RARα (COS extract) (Homo sapiens) (UniProt P10276); details: no high affinity complex without RXR; protein in a lysate after overexpression; label: 32P
T2 sequence (looked up, limits assumed): T1 sequence (looked up, limits assumed)

[2] = test system: RARα/RXRα heterodimer (COS extract) (Homo sapiens); details: COS whole cell extract; protein in a lysate after overexpression; label: 32P
[3] = target: RXRα (COS extract) (Homo sapiens) (UniProt P19793); details: no high affinity complex without RAR; protein in a lysate after overexpression; label: 32P
[4] = target: RXRalpha (hRXRα) (Homo sapiens) (UniProt P19793); details: weak at low amounts; homodimer at higher concentrations; prefers DR-1 over other DRs; purified recombinant protein; protein details: GST fusion, pGEX-2T; label: 32P
[5] = both RAR and RXR required for high affinity binding

AGCTGTCACAGGTCACAGGTCACAGGTCACAGTTCAAGCT (double strand) [CRBPII-RXRE]
binding result (RXR (hRXRα); no detectable binding alone): no binding
binding result (RAR (hRARα); very low affinity alone): binds more weakly

AGCTTAAGGGTTCACCGAAAGTTCACTCGCATAGCTGCT (double strand) [βRARE]
binding result (RXR (hRXRα); [5]): binds more weakly
binding result [1]: binds more weakly
binding result [2]: binds
binding result (RAR (hRARα); [5]): binds more weakly
binding result [3]: binds more weakly

AGCTTCAGGTCAGAGGTCAGAGAGCT (double strand) [DR-1]
binding result [4]: binds more weakly

For some assays here: No signal at the amounts used counts as a negative. For some assays here: Weaker means in comparison with the reference protein, sequence or condition of that experiment. For some assays here: Tags and fusion partners may be left off the protein sequences shown. For some assays here: Where cells or extracts were used, other partners may take part.
